Source: publication PMC10003956, “To the Understanding of Catalysis by D-Amino Acid Transaminases: A Case Study of the Enzyme from Aminobacterium colombiense” (Molecules, 2023)

By UniProt entry, the sequences of proteins in these tests, tags left out.
UniProt D5EHC5, entry or part of it: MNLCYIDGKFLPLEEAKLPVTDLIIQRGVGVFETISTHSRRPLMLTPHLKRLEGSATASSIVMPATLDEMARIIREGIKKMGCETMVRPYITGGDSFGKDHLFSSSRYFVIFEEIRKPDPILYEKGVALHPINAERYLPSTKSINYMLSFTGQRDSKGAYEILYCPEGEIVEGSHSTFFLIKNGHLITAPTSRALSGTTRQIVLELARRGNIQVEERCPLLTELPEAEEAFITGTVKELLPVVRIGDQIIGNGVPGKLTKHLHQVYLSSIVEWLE

Target: T1, AmicoTA (Aminobacterium colombiense, UniProt D5EHC5)
T1 construct: gene Amico_1844; N-terminal His6-TEV tag kept for kinetics, cut for crystals; E. coli Rosetta (DE3) pLysS
Assay: half-reaction of PLP form, absorbance at […] nm
Format: binding

- Kd: 10 ± 1 mM
Structure (SMILES): NCCC[C@@H](N)C(=O)O [D-ornithine]
